The values that follow come from US20200255499A1 (COUNCIL OF THE QUEENSLAND INSTITUTE OF MEDICAL RESEARCH, published 2020).

Protein sequences, listed by entry. Tags and fused reporters are not part of them. Residues count along the entry.
UniProt P03200, residues 1-860: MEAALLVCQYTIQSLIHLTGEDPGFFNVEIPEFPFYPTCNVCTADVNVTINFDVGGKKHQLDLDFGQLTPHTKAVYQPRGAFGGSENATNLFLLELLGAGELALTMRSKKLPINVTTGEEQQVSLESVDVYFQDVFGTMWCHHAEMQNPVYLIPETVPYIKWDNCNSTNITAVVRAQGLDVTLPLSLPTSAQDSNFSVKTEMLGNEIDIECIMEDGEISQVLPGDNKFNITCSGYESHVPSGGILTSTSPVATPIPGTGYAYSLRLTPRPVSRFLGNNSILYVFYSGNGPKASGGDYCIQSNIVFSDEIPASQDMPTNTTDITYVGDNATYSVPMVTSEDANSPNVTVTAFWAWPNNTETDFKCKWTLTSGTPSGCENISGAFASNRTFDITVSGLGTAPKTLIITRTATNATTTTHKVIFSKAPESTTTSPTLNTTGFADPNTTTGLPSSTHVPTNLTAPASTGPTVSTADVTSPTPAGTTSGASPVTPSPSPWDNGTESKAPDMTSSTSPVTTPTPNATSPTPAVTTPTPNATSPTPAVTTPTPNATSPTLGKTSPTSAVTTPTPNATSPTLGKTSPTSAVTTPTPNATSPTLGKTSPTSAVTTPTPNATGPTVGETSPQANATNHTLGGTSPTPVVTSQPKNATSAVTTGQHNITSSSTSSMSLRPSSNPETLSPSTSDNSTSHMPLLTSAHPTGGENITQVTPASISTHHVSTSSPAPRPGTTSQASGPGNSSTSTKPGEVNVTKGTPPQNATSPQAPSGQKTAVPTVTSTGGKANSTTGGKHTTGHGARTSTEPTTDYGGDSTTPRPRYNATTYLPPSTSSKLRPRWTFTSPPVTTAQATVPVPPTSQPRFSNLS

B1: Clone B7 recombinant human IgG1 monoclonal antibody (antibody, V domains shown)
VH: EVQLVQSGAEVKKPGASVEVSCKASGYTFNAYYIHWVRQAPGQGLDWMGWINPNSGGTNYAQNFKGRVTMTRDTSISTAYLELRSLTSDDTAVYFCATERGYTSSFRRDAFDKWGQGTMLTVSS
VL: ESVLTQPPSVSAAPGQKVTISCSGSSSNIGNNYVSWYQQLPGTAPKLLIYENNKRPSGIPDRFSGSKSGTSATLGITGLQTGDEAGYYCGTWDSSLSAVVFGGGTKLTVLG
notes: also called Antibody B7
B2: Clone A11 recombinant human IgG1 monoclonal antibody (antibody, V domains shown)
VH: EMQLVQSGAEVKKPGASVKVSCKTSGYNFNHQGISWLRQAPGQGLEWMGWISGFNGKTNYAQKFQGRVTMTADRSTTTAYMELRSLRSDDTAVYYCASGGEQWLVQNFVHWGQGTLLTVSS
VL: ETVLTQEPSLTVSPGGTVTLTCASSTGAVTSGYYPNWFQQKPGQAPRALIYSTSNKHSWTPARFSGSLLGGKAALTLSGVQPEDEAEYYCLLYYGGAWVFGGGTKLTVLG
notes: also called Antibody A11
B3: Clone B8 recombinant human IgG1 monoclonal antibody (antibody, V domains shown)
VH: EVQLVESAGEVQKPGESLRISCKASGYTFSHYWIGWVRQLPGKGLEWMGIIYPDDSDSRYSPSFQGQVTMSVDKSINTAYLQWNSLKVSDTATYYCVRHWLKRGSNFGFGFDPWGQGTTLTVSS
VL: ESALTQPASVSGSPGQSITISCTGTSSDVGGYNYVSWYQQHPGKAPKLMIYDVSNRPSGVSNRFSGSKSGNTASLTISGLQAEDEADYYCSSYTSSSTLVFGGGTKLTVLG
notes: also called antibody B8

These are yes or no findings as the source states them, for the method shown. Some binding calls cover weakened binding; strength is not graded here.

The assay has as its target Epstein Barr Virus (EBV) glycoprotein gp350 (Epstein-Barr virus) (UniProt P03200). Put plainly: SPR, gp350 immobilised on CM5 chip, single cycle kinetics.
Take B1: the binding result was “binds”. For B2 the value was “binds”. For B3 the value was “binds”.
